Measured values as given in patent US20220074941A1, “HSP90 COMBINATION THERAPY” (Sloan-Kettering Institute for Cancer Research, priority 2011, published 2022).

Assays:
[1] = test system: Hsp90 complexes in K562 cell extract; assay: Nano-LC-MS/MS of PU-beads pull-downs; assay type: binding; conditions: protein identified in PU-beads pull-down of K562 extract, QSTAR-Elite QTof MS
How it was run: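 Proteins were identified by data-dependent nano LC-MS/MS (QTof, ESI) and Mascot searching (p<0.05), then reported as spectral counts and coverage via Scaffold. Inputs were PU-bead versus control-bead pull-downs from lysate pre-cleared with control beads overnight at 4 °C, eluted by boiling in 2% SDS.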

[2] = test system: Hsp90 complexes in Mia-PaCa-2 cell extract; assay: Nano-LC-MS/MS of PU-beads pull-downs; assay type: binding, human; conditions: protein identified in PU-beads pull-down of Mia-Paca 2 extract; QSTAR-Elite QTof MS
Protocol: Lysates prepared as mentioned above were first pre-cleaned by incubation with control beads overnight at 4° C. […] Beads were washed with lysis buffer, proteins eluted by boiling in 2% SDS, separated on a denaturing gel and Coomassie stained according to manufacturer's procedure (Biorad). […] Analyses of the batch purified pools were done using a QSTAR-Elite hybrid quadrupole time-of-flight mass spectrometer (QTof MS) (AB/MDS Sciex), equipped with a nano spray ion source. Peptide mixtures (in 20 μL) are loaded onto a trapping guard column (0.3×5-mm PepMap C18 100 cartridge from LC Packings) using an Eksigent nano MDLC system (Eksigent Technologies, Inc) at a flow rate of 20 μL/min. […] Electrospray ionization (ESI) needle voltage was set at about 1800 V. The mass analyzer is operated in automatic, data-dependent MS/MS acquisition mode, with the threshold set to 10 counts per second of doubly or triply charged precursor ions selected for fragmentation scans. Survey scans of 0.25 sec are recorded from 400 to 1800 amu; up to 3 MS/MS scans are then collected sequentially for the selected precursor ions, recording from 100 to 1800 amu. The collision energy is automatically adjusted in accordance with the m/z value of the precursor ions selected for MS/MS. Selected precursor ions are excluded from repeated selection for 60 sec after the end of the corresponding fragmentation duty cycle. […] One missed tryptic cleavage site was allowed, precursor ion mass tolerance=0.4 Da fragment ion mass tolerance=0.4 Da, protein modifications were allowed for Met-oxide, Cys-acrylamide and N-terminal acetylation. MudPit scoring was typically applied with ‘require bold red’ activated, and using significance threshold score p<0.05. Unique peptide counts (or ‘spectral counts’) and percent sequence coverages for all identified proteins were exported to Scaffold Proteome Software (version 2_06_01, www.proteomesoftware.com) for further bioinformatic analysis (Table 5a). Using output from Mascot, Scaffold validates, organizes, and interprets mass spectrometry data, allowing more easily to manage large amounts of data, to compare samples, and to search for protein modifications.

B1: CDK7 (protein, UniProt P50613 2-346, looked up)
Cyclin-dependent kinase 7: ALDVKSRAKRYEKLDFLGEGQFATVYKARDKNTNQIVAIKKIKLGHRSEAKDGINRTALREIKLLQELSHPNIIGLLDAFGHKSNISLVFDFMETDLEVIIKDNSLVLTPSHIKAYMLMTLQGLEYLHQHWILHRDLKPNNLLLDENGVLKLADFGLAKSFGSPNRAYTHQVVTRWYRAPELLFGARMYGVGVDMWAVGCILAELLLRVPFLPGDSDLDQLTRIFETLGTPTEEQWPDMCSLPDYVTFKSFPGIPLHHIFSAAGDDLLDLIQGLFLFNPCARITATQALKMKYFSNRPGPTPGCQLPRPNCPVETLKEQSNPALAIKRKRTEALEQGGLPKKLIF
- Number of Assigned Spectra, K562 Prep 1 [1]: 2
- Number of Assigned Spectra, K562 Prep 2 [1]: 0
- Number of Assigned Spectra, Mia-Paca 2 [2]: 1

B2: CCAR1 (protein, UniProt Q8IX12 1-1150, looked up)
Cell division cycle and …: MAQFGGQKNPPWATQFTATAVSQPAALGVQQPSLLGASPTIYTQQTALAAAGLTTQTPANYQLTQTAALQQQAAAAAAALQQQYSQPQQALYSVQQQLQQPQQTLLTQPAVALPTSLSLSTPQPTAQITVSYPTPRSSQQQTQPQKQRVFTGVVTKLHDTFGFVDEDVFFQLSAVKGKTPQVGDRVLVEATYNPNMPFKWNAQRIQTLPNQNQSQTQPLLKTPPAVLQPIAPQTTFGVQTQPQPQSLLQAQISAASITPLLQTQPQPLLQQPQQKAGLLQPPVRIVSQPQPARRLDPPSRFSGRNDRGDQVPNRKDDRSRERERERRRSRERSPQRKRSRERSPRRERERSPRRVRRVVPRYTVQFSKFSLDCPSCDMMELRRRYQNLYIPSDFFDAQFTWVDAFPLSRPFQLGNYCNFYVMHREVESLEKNMAILDPPDADHLYSAKVMLMASPSMEDLYHKSCALAEDPQELRDGFQHPARLVKFLVGMKGKDEAMAIGGHWSPSLDGPDPEKDPSVLIKTAIRCCKALTGIDLSVCTQWYRFAEIRYHRPEETHKGRTVPAHVETVVLFFPDVWHCLPTRSEWETLSRGYKQQLVEKLQGERKEADGEQDEEEKDDGEAKEISTPTHWSKLDPKTMKVNDLRKELESRALSSKGLKSQLIARLTKQLKVEEQKEEQKELEKSEKEEDEDDDRKSEDDKEEEERKRQEEIERQRRERRYILPDEPAIIVHPNWAAKSGKFDCSIMSLSVLLDYRLEDNKEHSFEVSLFAELFNEMLQRDFGVRIYKSLLSLPEKEDKKEKDKKSKKDERKDKKEERDDETDEPKPKRRKSGDDKDKKEDRDERKKEDKRKDDSKDDDETEEDNNQDEYDPMEAEEAEDEEDDRDEEEMTKRDDKRDINRYCKERPSKDKEKEKTQMITINRDLLMAFVYFDQSHCGYLLEKDLEEILYTLGLHLSRAQVKKLLNKVVLRESCFYRKLTDTSKDEENHEESESLQEDMLGNRLLLPTPTVKQESKDVEENVGLIVYNGAMVDVGSLLQKLEKSEKVRAEVEQKLQLLEEKTDEDEKTILNLENSNKSLSGELREVKKDLSQLQENLKISENMNLQFENQMNKTIRNLSTVMDEIHTVLKKDNVKNEDKDQKSKENGASV
- Number of Assigned Spectra, K562 Prep 1 [1]: 3
- Number of Assigned Spectra, K562 Prep 2 [1]: 0
- Number of Assigned Spectra, Mia-Paca 2 [2]: 0
